# The other results are listed elsewhere or left out. The main result of the screen is listed elsewhere. These columns were measured beside it and carry no call. Compounds called inactive in the main read-out are mostly missing here. Potencies come from curve fits of mixed quality, noted in brackets.
# Test: Cell signaling CRE-BLA (Fsk stim)
# Conditions: CHO CRE-bla reporter (cAMP response element driving beta-lactamase), forskolin EC10, beta-lactamase ratio; measured here: 460 nm blue channel
# Outline: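 Cells were plated overnight at 37 °C, exposed to compound titrations plus EC10 NKH 477 for 3 h, then given CCF4 dye for 2 h at room temperature. Blue/green (460/530 nm) ratio was converted to %Activity and AC50 values calculated.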
row,SMILES,AC50
1,CCN(CCNC(=O)C1CCN(Cc2nc(-c3cccc(Cl)c3)oc2C)CC1)c1ccccc1,"0.02 µM [falling, full curve]"
2,COc1ccccc1N1CCN(CCCCNC(=O)c2ccc(-c3ccc(C(C)=O)cc3)cc2)CC1,"12.6 µM [rising, single point]"
3,O=C(CSc1ncccc1-c1nc2ccccc2[nH]1)N1CCCCC1,"10 µM [rising, single point]"
4,Cc1noc(C)c1CSCC(=O)OCc1nc2ccccc2c(=O)n1CC#N,"12.6 µM [rising, single point]"
5,CC1(C)Oc2ccc3ccc(=O)oc3c2-c2cnoc21,"25.1 µM [rising, single point]"
6,CC(=O)N1CCN(c2ccc(NCc3ccc4c(c3)OCO4)cc2)CC1,"25.1 µM [rising, single point]"
7,Cn1c(=O)c2c(nc(N3CCCCC3)n2CCSc2nc3ccccc3o2)n(C)c1=O,"0.0794 µM [rising, single point]"
8,CCN(CC)CCNC(=O)c1cc2c(=O)n(C)c3ccccc3c2n1C,"12.6 µM [rising, partial curve]"
9,COc1ccc(-c2nc(-c3ccc(Br)o3)no2)cc1OC,"10 µM [rising, partial curve]"
10,O=C(CSCc1ccco1)c1cccs1,"3.16 µM [rising, single point]"
11,CC(C)C12CN3CC(C(C)C)(CN(C1)C3c1ccccc1O)C2=O (centres undefined),"0.631 µM [rising, full curve, poor fit]"
12,Cn1c(C(=O)NCc2ccccn2)cc2c(=O)n(C)c3ccccc3c21,"3.16 µM [rising, full curve]"
13,Cc1noc(C)c1COC(=O)COc1cccc2c1OC(C)(C)C2,"2.51 µM [falling, partial curve]"
14,CCNc1ncc2nc(-c3ccccc3)c(=O)n(CCC#N)c2n1,"12.6 µM [rising, partial curve]"
15,Cc1cc2n(n1)SC(Nc1ccccc1)N2 (centres undefined),"3.98 µM [falling, partial curve]"
16,O=C(CCCCn1c(=O)c2ccccc2n(Cc2ccc(Cl)cc2)c1=O)NCc1ccco1,"3.98 µM [rising, full curve, poor fit]"
17,O=C1NCCCC1C(=O)NCCNC(=O)C(F)(F)F (centres undefined),"0.2 µM [rising, partial curve]"
18,CCCCOCCCNC(=O)COc1ccccc1,"0.794 µM [falling, full curve, poor fit]"
19,CCCCCCCCC(=O)NCc1cc(OC)c(O)cc1I,"15.8 µM [falling, partial curve, poor fit]"
20,COc1ccc(OC)c(/C=N/c2oc(-c3ccco3)c(-c3ccco3)c2C#N)c1,"10 µM [rising, partial curve]"
21,COc1ccc(C(=O)NCc2cccnc2)cc1OC,"12.6 µM [rising, partial curve]"
22,CCOC(=O)c1c(C)n(C)c2ccc(O)c(CN(C)C)c12,"25.1 µM [rising, single point]"

# Of the compounds above, two have an aryl thioether with sulfur outside any ring.
row,SMILES,AC50
3,O=C(CSc1ncccc1-c1nc2ccccc2[nH]1)N1CCCCC1,"10 µM [rising, single point]"
7,Cn1c(=O)c2c(nc(N3CCCCC3)n2CCSc2nc3ccccc3o2)n(C)c1=O,"0.0794 µM [rising, single point]"

# Later entries.

row,SMILES,AC50
1,O=C(CSc1nc2ccccc2o1)Nc1ccccc1N1CCCCCC1,"1 µM [rising, full curve, poor fit]"
2,C=CCNC(=O)NC(=O)COC(=O)COc1ccc(Br)cc1F,"3.98 µM [falling, single point]"
3,Cc1oc2c(CN(C)C)c(O)ccc2c(=O)c1-c1cscn1,"5.01 µM [falling, single point]"
4,COc1cc(NS(=O)(=O)c2cc(C)ccc2OC)c(OC)cc1Cl,"25.1 µM [rising, single point]"
5,CCc1ccc(-c2nc(CN3CCC(C(=O)N4CCN(c5ccccn5)CC4)CC3)c(C)o2)cc1,"0.316 µM [falling, single point]"
6,COC(=O)C1=C(C)NC(C)=C([N+](=O)[O-])[C@H]1c1ccccc1C(F)(F)F,"31.6 µM [falling, single point]"
7,CCN1CCN(C(=O)c2cc3c(=O)oc4ccc(C)cc4c3s2)CC1,"2.51 µM [rising, full curve]"
8,CCOC(=O)c1sc2ccc(S(=O)(=O)N3CCCCC3)cc2c1N,"25.1 µM [rising, single point]"
9,COc1ccc(CNC(=O)C2CC(c3cccc(OC)c3)=NO2)cc1 (centres undefined),"12.6 µM [rising, partial curve]"
10,CCN(CC)c1nc(Nc2ccccc2)nc(Oc2ccc(=O)[nH]n2)n1,"10 µM [rising, partial curve]"
11,Cc1nc(N2CCN(Cc3ccccc3)CC2)nc2c1C(=O)CC(c1ccco1)C2 (centres undefined),"5.01 µM [rising, partial curve]"
12,CCNc1nc(NC(C)C)nc(N(C#N)CCOc2ccc(Cl)cc2Cl)n1,"25.1 µM [falling, single point]"
13,COCc1cc(C)nc2sc(C(=O)N3CCN(c4ccccc4)CC3)c(N)c12,"12.6 µM [rising, partial curve]"
14,O=C(Cn1c(-c2ccccn2)nc2ccccc21)NCCN1CCOCC1,"5.01 µM [falling, single point]"
15,Cc1ccc(CNC(=O)CN(C)S(=O)(=O)c2cccc3nsnc23)cc1,"25.1 µM [rising, single point]"
16,Cc1nc(NCc2ccccc2)c2nc(-c3ccccc3)n(CCN3CCOCC3)c2n1,"15.8 µM [rising, partial curve]"
17,O=C(NCc1ccco1)c1ccc2c(c1)C(=O)c1ccccc1-2,"7.94 µM [rising, partial curve]"
18,COc1ccc(CN(Cc2cc3cc4c(cc3[nH]c2=O)OCO4)C(=O)NC2CCCCC2)cc1,"10 µM [rising, partial curve]"
19,O=c1[nH]c2c(c3c1CCCC3)CCCC2,"0.00398 µM [falling, full curve, poor fit]"
20,N#Cc1c2n(c3c(-c4ccccc4)ncnc13)CCC2,"10 µM [rising, single point]"
21,CSc1nsc(SC)c1NC(=O)OCC1CCCO1 (centres undefined),"0.00398 µM [falling, full curve, poor fit]"
22,CCCNC(=O)c1c(N)n(-c2ccc3c(c2)OCO3)c2nc3ccccc3nc12,"0.794 µM [rising, full curve]"
